The exact form of at least one protein or probe is not confirmed. Results from cells or extracts need not show a direct contact. For some assays here: No signal at the amounts used counts as a negative.
Assays:
Assay in all cases: EMSA
[1] = tested on: TNF-alpha ribozyme-binding protein(s) in cytoplasmic extract of HL60 cells (Homo sapiens); settings: protein in an extract
[2] = tested on: TNF-alpha ribozyme-binding protein(s) in cytoplasmic extract of PBMN cells (major one identified as GAPDH) (Homo sapiens); settings: protein in an extract
[3] = tested on: TNF-alpha ribozyme-binding protein(s) in cytoplasmic extract of WH164 cells; settings: protein in an extract; label: 32P; variant of TNF-alpha ribozyme II
[4] = label: 32P, variant of TNF-alpha ribozyme II

“GAGUACUAAGAUGAUCUCUGAUGAGUCCGUGAGGACGAAACUGCCUGGUCUAG [TNF-alpha ribozyme B]”: binds ([1]; label: 32P internal).

“GCUGAUGAGUCCGUGAGGACGAAACUGCCUGGUACUAAAUU [5' truncated TNF-alpha ribozyme]”: no binding ([2]; weak complex not always detected, label: 32P, variant of TNF-alpha ribozyme II).

“GUAAGAUGAUCUCUGAUGAGUCCGUGAGGAAAAAGACUUAGUGCAAUGCAACUGAUGAGUCCGUGAGGACGAAACAGGAGUUGCGAAUU [IL-2-PB-Rz]”: binds ([2]; bound strongly in crude extracts).

“GUAAGAUGAUCUCUGAUGAGUCCGUGAGGACGAAACUGCCUGAAUU [TNF-alpha ribozyme II]”: binds ([1]; not inhibited by tRNA or poly(dC)(dI), label: 32P internal); binds ([2]; label: 32P internal).

“GUAAGAUGAUCUCUGAUGAGUCCGUGAGGACGAAGAAUU [3' truncated TNF-alpha ribozyme]”: binds [1, 4]; binds [2, 4]; binds [3].
